{"source": "patent US20060257938A1", "about": "“Method of screening for drugs that block ligand binding to a lipid binding protein” (priority 2005, published 2006)", "molecules": {"B1": {"name": "73W, 72A (protein, listed as Rattus norvegicus)", "chain": "AFDGTWKVDRNENYEKFMEKMGINVVKRKLGAHDNLKLTITQEGNKFTVKESSNFRNIDVVFELGVDFAYSAWDGTELTGTWTMEGNKLVGKFKRVDNGKELIAVREISGNELIQTYTYEGVEAKRIFKKE", "modifications": "PEPTIDE (1)...(131) wild-type rat intestinal fatty acid binding protein"}, "B2": {"name": "78T1, 72A (protein, listed as Rattus norvegicus)", "chain": "B1 chain with W73A, L78T", "modifications": "PEPTIDE (1)...(131) wild-type rat intestinal fatty acid binding protein"}, "B3": {"name": "74F, 72A (protein, listed as Rattus norvegicus)", "chain": "B1 chain with W73A, D74F", "modifications": "PEPTIDE (1)...(131) wild-type rat intestinal fatty acid binding protein"}, "B4": {"name": "82A, 72A (protein, listed as Rattus norvegicus)", "chain": "B1 chain with W73A, W82A", "modifications": "PEPTIDE (1)...(131) wild-type rat intestinal fatty acid binding protein"}, "B5": {"name": "74L, 72A (protein, listed as Rattus norvegicus)", "chain": "B1 chain with W73A, D74L", "modifications": "PEPTIDE (1)...(131) wild-type rat intestinal fatty acid binding protein"}, "B6": {"name": "91A, 72A (protein, listed as Rattus norvegicus)", "chain": "B1 chain with W73A, G91A", "modifications": "PEPTIDE (1)...(131) wild-type rat intestinal fatty acid binding protein"}, "B7": {"name": "74C, 72A (protein, listed as Rattus norvegicus)", "chain": "B1 chain with W73A, D74C", "modifications": "PEPTIDE (1)...(131) wild-type rat intestinal fatty acid binding protein"}, "B8": {"name": "78I1, 72A (protein, listed as Rattus norvegicus)", "chain": "B1 chain with W73A, L78I", "modifications": "PEPTIDE (1)...(131) wild-type rat intestinal fatty acid binding protein"}, "B9": {"name": "82Y2, 72A (protein, listed as Rattus norvegicus)", "chain": "B1 chain with W73A, W82Y", "modifications": "PEPTIDE (1)...(131) wild-type rat intestinal fatty acid binding protein"}, "B10": {"name": "78M1, 72A (protein, listed as Rattus norvegicus)", "chain": "B1 chain with W73A, L78M", "modifications": "PEPTIDE (1)...(131) wild-type rat intestinal fatty acid binding protein"}, "B11": {"name": "74A, 72A (protein, listed as Rattus norvegicus)", "chain": "B1 chain with W73A, D74A", "modifications": "PEPTIDE (1)...(131) wild-type rat intestinal fatty acid binding protein"}, "B12": {"name": "82V1, 72A (protein, listed as Rattus norvegicus)", "chain": "B1 chain with W73A, W82V", "modifications": "PEPTIDE (1)...(131) wild-type rat intestinal fatty acid binding protein"}, "B13": {"name": "78A3, 72A (protein, listed as Rattus norvegicus)", "chain": "B1 chain with W73A, L78A", "modifications": "PEPTIDE (1)...(131) wild-type rat intestinal fatty acid binding protein"}, "B14": {"name": "82F1, 72A (protein, listed as Rattus norvegicus)", "chain": "B1 chain with W73A, W82F", "modifications": "PEPTIDE (1)...(131) wild-type rat intestinal fatty acid binding protein"}, "B15": {"name": "78C2, 72A (protein, listed as Rattus norvegicus)", "chain": "B1 chain with W73A, L78C", "modifications": "PEPTIDE (1)...(131) wild-type rat intestinal fatty acid binding protein"}, "B16": {"name": "74Q, 72A (protein, listed as Rattus norvegicus)", "chain": "B1 chain with W73A, D74Q", "modifications": "PEPTIDE (1)...(131) wild-type rat intestinal fatty acid binding protein"}, "B17": {"name": "74N, 72A (protein, listed as Rattus norvegicus)", "chain": "B1 chain with W73A, D74N", "modifications": "PEPTIDE (1)...(131) wild-type rat intestinal fatty acid binding protein"}, "B18": {"name": "82M1, 72A (protein, listed as Rattus norvegicus)", "chain": "B1 chain with W73A, W82M", "modifications": "PEPTIDE (1)...(131) wild-type rat intestinal fatty acid binding protein"}, "B19": {"name": "78H1, 72A (protein, listed as Rattus norvegicus)", "chain": "B1 chain with W73A, L78H", "modifications": "PEPTIDE (1)...(131) wild-type rat intestinal fatty acid binding protein"}, "B20": {"name": "78W1, 72A (protein, listed as Rattus norvegicus)", "chain": "B1 chain with W73A, L78W", "modifications": "PEPTIDE (1)...(131) wild-type rat intestinal fatty acid binding protein"}, "B21": {"name": "82I3, 72A (protein, listed as Rattus norvegicus)", "chain": "B1 chain with W73A, W82I", "modifications": "PEPTIDE (1)...(131) wild-type rat intestinal fatty acid binding protein"}, "B22": {"name": "82A1, 72A (protein, listed as Rattus norvegicus)", "chain": "B1 chain with W73A, W82A", "modifications": "PEPTIDE (1)...(131) wild-type rat intestinal fatty acid binding protein"}, "B23": {"name": "78F1, 72A (protein, listed as Rattus norvegicus)", "chain": "B1 chain with W73A, L78F", "modifications": "PEPTIDE (1)...(131) wild-type rat intestinal fatty acid binding protein"}, "B24": {"name": "74T, 72A (protein, listed as Rattus norvegicus)", "chain": "B1 chain with W73A, D74T", "modifications": "PEPTIDE (1)...(131) wild-type rat intestinal fatty acid binding protein"}, "B25": {"name": "104I1, 72A (protein, listed as Rattus norvegicus)", "chain": "B1 chain with W73A, A104I", "modifications": "PEPTIDE (1)...(131) wild-type rat intestinal fatty acid binding protein"}}, "note": "Where a chain is given by its changes, count along the chain named.", "data": [{"test": "Baseline fluorescence ratio Ro of probe in absence of analyte", "settings": "average baseline fluorescence ratio Ro of the clone probe; substitutions with respect to SEQ ID NO: 2", "values": [{"molecule": "B1", "AvgOfRo": 0.39}, {"molecule": "B2", "AvgOfRo": 0.40}, {"molecule": "B3", "AvgOfRo": 0.25}, {"molecule": "B4", "AvgOfRo": 0.41}, {"molecule": "B5", "AvgOfRo": 0.17}, {"molecule": "B6", "AvgOfRo": 0.21}, {"molecule": "B7", "AvgOfRo": 0.45}, {"molecule": "B8", "AvgOfRo": 0.56}, {"molecule": "B9", "AvgOfRo": 0.33}, {"molecule": "B10", "AvgOfRo": 0.33}, {"molecule": "B11", "AvgOfRo": 0.20}, {"molecule": "B12", "AvgOfRo": 0.33}, {"molecule": "B13", "AvgOfRo": 0.25}, {"molecule": "B14", "AvgOfRo": 0.27}, {"molecule": "B15", "AvgOfRo": 0.35}, {"molecule": "B16", "AvgOfRo": 0.29}, {"molecule": "B17", "AvgOfRo": 0.16}, {"molecule": "B18", "AvgOfRo": 0.27}, {"molecule": "B19", "AvgOfRo": 0.39}, {"molecule": "B20", "AvgOfRo": 0.32}, {"molecule": "B21", "AvgOfRo": 0.24}, {"molecule": "B22", "AvgOfRo": 0.31}, {"molecule": "B23", "AvgOfRo": 0.35}, {"molecule": "B24", "AvgOfRo": 0.27}]}, {"test": "Baseline fluorescence ratio Ro of probe in absence of analyte", "settings": "baseline fluorescence ratio of probe", "values": [{"molecule": "B3", "Ro": 0.28}]}, {"test": "Baseline fluorescence ratio Ro of probe in absence of analyte", "settings": "baseline fluorescence ratio of probe, no fatty acid", "values": [{"molecule": "B3", "Ro": 0.28}, {"molecule": "B25", "AvgOfRo": 0.16}, {"molecule": "B5", "Ro": 0.172}]}]}
